The experiment concerns the target human TRβ1ΔAB (TR DBD-LBD), thyroid hormone receptor β1 residues 102-461 (human) (UniProt P10828). In words: SEC; TR+T3 and RXR mixed at equimolar quantities, complex purified on Superdex75 10/30; eluted protein checked by non-denaturing gel electrophoresis; both purified.

By UniProt entry, the sequences of proteins in these tests, tags left out. Where a name states a change or a piece, a line headed by the entry shows the natural chain unless it says otherwise. Residues count along the entry.
UniProt P10828, residues 102-461: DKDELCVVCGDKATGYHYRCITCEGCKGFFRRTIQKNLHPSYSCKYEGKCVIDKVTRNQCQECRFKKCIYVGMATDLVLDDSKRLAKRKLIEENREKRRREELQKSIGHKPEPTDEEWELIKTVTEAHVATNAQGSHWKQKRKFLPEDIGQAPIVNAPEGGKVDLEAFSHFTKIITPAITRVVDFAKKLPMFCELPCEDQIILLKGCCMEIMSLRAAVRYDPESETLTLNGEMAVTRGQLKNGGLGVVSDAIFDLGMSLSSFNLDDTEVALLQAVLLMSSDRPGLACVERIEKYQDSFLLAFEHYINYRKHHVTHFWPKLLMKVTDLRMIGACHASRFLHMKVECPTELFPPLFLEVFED
UniProt P19793, residues 126-462: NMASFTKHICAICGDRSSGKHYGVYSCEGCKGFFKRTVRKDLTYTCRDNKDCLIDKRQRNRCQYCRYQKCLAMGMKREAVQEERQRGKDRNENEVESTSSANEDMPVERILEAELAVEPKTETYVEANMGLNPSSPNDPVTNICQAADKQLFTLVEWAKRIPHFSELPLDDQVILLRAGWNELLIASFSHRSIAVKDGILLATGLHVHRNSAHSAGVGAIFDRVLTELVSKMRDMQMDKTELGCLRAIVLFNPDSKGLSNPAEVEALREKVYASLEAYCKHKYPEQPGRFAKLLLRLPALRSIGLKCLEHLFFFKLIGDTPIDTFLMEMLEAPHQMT

These are yes or no findings as the source states them, for the method shown. Some binding calls cover weakened binding; strength is not graded here.

As for “RXRα1ΔAB (DBD-LBD), retinoid X receptor α residues 126-462 (from UniProt P19793 126-462) (domain or fragment)”, the binding entry is on record as “binds”.
